{"source": "patent US11833154B2", "about": "“Methods of treatment of myeloproliferative neoplasm” (priority 2017, dated 2023)", "key": {"[1]": {"system": "IDH2^R140Q JAK2^V617F mutant LSK", "test": "RNA-sequencing of donor-derived CD45.2 LSK from treated mice (GSEA)", "type": "in vivo", "conditions": "stem cells of treated mice versus wild type, Hallmark GSEA", "experimental": "Before cell of origin transplants, sorting was performed on bone marrow with enrichment for cKit/CD117-positive cells using CD117 MicroBeads (Miltenyi). For expression analysis, sorting was performed on bone marrow that had been depleted of mature cells using Progenitor Cell Enrichment Kit ([…] Technologies).\nCD45.2+ LSK cells were sorted into ice cold FACS Buffer, pelleted, and stored in Triazol until extraction of RNA using phenol-chlorophorm. The library was produced using SMARTer amplification (Clontech) amplify and create the library. Illumina sequencing was performed using Paired-End 50 bp at 40×10^6 reads per sample."}, "[2]": {"system": "JAK2/IDH2-mutant MPN/AML cells", "test": "FACS of cell surface markers on cultured human colony cells", "type": "cell-based", "conditions": "cultured patient cells, 400 nM", "experimental": "(§1) Frozen or fresh PBMCs were plated in Methocult H4435 (Stem Cell) with penicillin and streptomycin in triplicate wells. MPN patient cells were plated after enrichment using CD34 Microbeads (Miltenyi) at 1,000 cells per well; AML patient cells were plated without enrichment at 100,000 cells per well.\nTo observe monocytic and granulocytic differentiation, antibodies against CD117/cKit, CD34, CD38, CD15 (HI98, eBioscience), CD14 (HCD14, BioLegend), and CD16 (3G8, BioLegend) were used."}, "[3]": {"system": "JAK2/IDH2 mutant MPN", "test": "Histology of bone marrow and spleen of treated recipients", "type": "in vivo, mice", "conditions": "CD34 immunohistochemical stain of bone marrow", "experimental": "Pathology was obtained after fixation in 4% paraformaldehyde (PFA); blood smears and bone marrow cytospins were performed on the day of sacrifice. Sections were stained with hematoxylin and eosin stain or Wright Giemsa stain as appropriate. CD34+ staining was performed using CD34, Rat Monoclonal Antibody Performed on a Leica Bond™ RX using the Bond™ Polymer Refine Detection Kit (Cat. No. DS9800). The sections stained with CD34 (Abcam, Cat. Ab8158 diluted 1:50) were pre-treated using heat mediated antigen retrieval with Citrate, pH6 (Leica Biosystem Epitope Retrieval 1, Cat. No. AR9961) for 20 min. DAB was used as the chromogen, counterstained with hematoxylin and mounted."}, "[4]": {"system": "samples from patients with MPN and Post-MPN AML with IDH2^R140Q and JAK2^V617F mutations", "test": "Human colony forming (methylcellulose) assay", "type": "cell-based", "conditions": "Methocult H4435, 400 nM, DMSO controls", "experimental": "Approval was obtained from the Institutional Review Board at Memorial Sloan-Kettering Cancer Center. Tissues were collected in partnership with the Human Oncology Tissue Bank, and all patients provided informed consent. Fresh peripheral blood was collected into heparinized collection tubes, and separation of peripheral blood mononuclear cells (PBMC) was performed using hetastarch and a Ficoll gradient with subsequent red blood cell lysis.\nas §1"}}, "note": "For at least one compound, name, drawing or mass did not settle the structure.", "data": [{"smiles": "N#CC[C@H](C1CCCC1)n1cc(-c2ncnc3[nH]ccc23)cn1", "note": "[ruxolitinib, reference compound]", "values": [{"measurement": "IL6/JAK/STAT3 gene expression signature", "setting": "[1]", "value": "normalized"}, {"measurement": "Interferon gamma signatures", "setting": "[1]", "value": "lost significance"}, {"measurement": "Oncogenic signatures (cMYC, mTOR, KRAS)", "setting": "[1]", "value": "highly significant enrichment"}, {"measurement": "Differentiation markers CD235a / CD14", "setting": "[2]", "value": "not seen"}, {"measurement": "Surface expression of immature marker cKit/CD117 / proportion of c-Kit positive colonies", "setting": "[2]", "value": "not seen"}, {"measurement": "Aberrant CD34 expression in megakaryocytes", "setting": "[3]", "value": "not"}, {"measurement": "Colony number / colony output", "setting": "[4]", "value": "reduced colony output"}]}]}
